# PubChem BioAssay AID652023 (National Center for Advancing Translational Sciences (NCATS), 2013)
# Chains of the proteins cited; added tags and fusions are not shown.
# UniProt O89049, whole entry, looked up: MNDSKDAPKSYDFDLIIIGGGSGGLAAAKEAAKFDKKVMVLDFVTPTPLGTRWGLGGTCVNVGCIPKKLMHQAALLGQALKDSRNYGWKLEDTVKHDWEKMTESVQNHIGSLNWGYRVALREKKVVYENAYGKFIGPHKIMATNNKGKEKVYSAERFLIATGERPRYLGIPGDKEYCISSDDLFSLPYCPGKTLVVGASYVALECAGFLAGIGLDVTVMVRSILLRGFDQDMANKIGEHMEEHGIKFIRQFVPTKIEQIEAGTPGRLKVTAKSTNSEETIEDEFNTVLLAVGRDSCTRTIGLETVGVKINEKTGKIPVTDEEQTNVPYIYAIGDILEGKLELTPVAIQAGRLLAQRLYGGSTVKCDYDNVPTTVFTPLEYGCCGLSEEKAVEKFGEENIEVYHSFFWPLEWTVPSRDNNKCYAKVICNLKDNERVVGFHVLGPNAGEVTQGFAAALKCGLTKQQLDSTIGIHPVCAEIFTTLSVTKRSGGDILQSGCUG
# The shares of active, inactive and inconclusive entries below differ from those in the screen. The call rests on the fitted dose curve; in most records, active means well fitted inhibition curve with a large enough effect; inconclusive means small, poorly fitted or top-dose-only effect; inactive means flat fitted curve, though single readings scatter. Potencies of inconclusive entries are doubtful fits and often do not repeat.
# Target: Thioredoxin reductase 1, cytoplasmic (Rattus norvegicus) (UniProt O89049)
# Assay: qHTS Assay for Inhibitors of Mammalian Selenoprotein Thioredoxin Reductase 1 (TrxR1): Hit Validation in Primary Screen
# Settings: recombinant TrxR1, NADPH fluorescence consumption, selenite substrate
# Excerpt: The selenoprotein thioredoxin reductase (TrxR; EC 1.8.1.9) is a FAD containing homodimeric pyridine nucleotide-disulfide oxidoreductase with many cellular roles. Together with NADPH and its prime substrate thioredoxin (Trx), the enzyme forms the core of the Trx system. The mammalian Trx system exerts a wide spectrum of functions including redox regulation, antioxidant defense, regulation of transcription factors as well as support of cell growth and replication. Many of these functions involve the reduction of Trx, which may subsequently reduce a number of different substrates including ribonucleotide reductase, peroxiredoxins or NFkB. […]
# Assay protocol: 2 uL of reagents (buffer in column 4 as negative control and 90 nM rTrxR1 in columns 1-3 and 5-48) were dispensed into Greiner black solid-bottom 1,536-well assay plates, followed by 1 uL of NADPH (400 uM final concentration) to each well. […] The plate was immediately transferred to a ViewLux high-throughput CCD imager (PerkinElmer), wherein kinetic measurements of NADPH fluorescence (Ex 340 nm, Em 450 nm) were acquired (8 minute kinetic read). Read 1 was utilized to assess the capacity of a compound to serve as an rTrxR1 substrate, i.e. a decrease in NADPH fluorescence compared to the no-compound background is an indication of a substrate behavior for that particular compound. […]
row,SMILES,Potency
1,O=C1C=CC2C3C(=O)N(c4ccccc4)C(=O)C3C1N2Cc1ccccc1 (configuration not stated),"inconclusive: 2.67 µM [inhibitor, full curve]"
2,CC1=C[C@@H]2c3cccc4[nH]cc(c34)C[C@H]2N(C)C1,"inconclusive: 4.74 µM [inhibitor, partial curve]"
